This is an account of results in article doi:10.1101/2025.01.02.631137.

No constants are given. Whether binding was seen depends on the method and setting. In cells and extracts the contact can be indirect. Some entries that bind do so weakly or less than the wild type. For some assays here: Where a sequence is shown, tags or fusion partners need not be part of it.

The target of assay [1] is T1, ΔbGLU25-GFP (A. thaliana) (UniProt O82772).
T1 sequence: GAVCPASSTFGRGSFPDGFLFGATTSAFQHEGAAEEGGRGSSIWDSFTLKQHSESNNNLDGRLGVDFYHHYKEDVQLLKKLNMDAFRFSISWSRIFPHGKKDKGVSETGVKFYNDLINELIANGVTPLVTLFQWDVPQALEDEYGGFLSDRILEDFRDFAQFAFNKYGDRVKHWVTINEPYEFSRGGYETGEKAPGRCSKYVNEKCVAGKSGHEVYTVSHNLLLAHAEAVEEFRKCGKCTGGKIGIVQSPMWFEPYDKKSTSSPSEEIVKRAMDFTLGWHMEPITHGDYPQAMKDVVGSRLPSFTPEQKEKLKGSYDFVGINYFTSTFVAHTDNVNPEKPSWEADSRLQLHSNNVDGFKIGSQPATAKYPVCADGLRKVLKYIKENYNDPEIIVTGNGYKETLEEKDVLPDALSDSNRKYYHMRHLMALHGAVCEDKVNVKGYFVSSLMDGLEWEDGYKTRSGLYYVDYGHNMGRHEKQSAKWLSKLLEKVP
Briefly: co-IP.

Assay [2] concerns the target T2, ssGFP-bGLU25 (GFP between the signal peptide and the remainder of bGLU25) (A. thaliana) (UniProt O82772).
T2 sequence: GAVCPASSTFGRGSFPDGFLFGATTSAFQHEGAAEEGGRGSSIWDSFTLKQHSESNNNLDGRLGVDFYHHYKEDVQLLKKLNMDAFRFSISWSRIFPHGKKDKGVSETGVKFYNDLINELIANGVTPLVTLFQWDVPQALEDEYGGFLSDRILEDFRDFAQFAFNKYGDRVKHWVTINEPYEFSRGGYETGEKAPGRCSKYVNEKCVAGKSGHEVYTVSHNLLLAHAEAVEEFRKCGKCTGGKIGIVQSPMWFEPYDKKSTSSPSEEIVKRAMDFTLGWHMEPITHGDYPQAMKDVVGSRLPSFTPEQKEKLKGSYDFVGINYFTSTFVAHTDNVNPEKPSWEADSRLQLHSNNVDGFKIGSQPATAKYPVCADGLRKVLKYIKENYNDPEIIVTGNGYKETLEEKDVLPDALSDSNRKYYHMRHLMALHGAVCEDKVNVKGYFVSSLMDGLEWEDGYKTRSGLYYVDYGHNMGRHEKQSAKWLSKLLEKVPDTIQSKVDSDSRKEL
Briefly: co-IP.

Assay [3] concerns the target T3, bGLU25 fused to a split mVenus half (BiFC) (A. thaliana) (UniProt O82772).
T3 sequence: T2 sequence
Briefly: split reporter.

Assay [4] has as its target T4, ΔbGLU25 fused to a split mVenus half (BiFC) (A. thaliana) (UniProt O82772).
T4 sequence: T1 sequence
Briefly: split reporter.

Assay [5] has as its target T5, AtJAC1-mVenus^C (BiFC) (A. thaliana) (UniProt O04309).
T5 sequence: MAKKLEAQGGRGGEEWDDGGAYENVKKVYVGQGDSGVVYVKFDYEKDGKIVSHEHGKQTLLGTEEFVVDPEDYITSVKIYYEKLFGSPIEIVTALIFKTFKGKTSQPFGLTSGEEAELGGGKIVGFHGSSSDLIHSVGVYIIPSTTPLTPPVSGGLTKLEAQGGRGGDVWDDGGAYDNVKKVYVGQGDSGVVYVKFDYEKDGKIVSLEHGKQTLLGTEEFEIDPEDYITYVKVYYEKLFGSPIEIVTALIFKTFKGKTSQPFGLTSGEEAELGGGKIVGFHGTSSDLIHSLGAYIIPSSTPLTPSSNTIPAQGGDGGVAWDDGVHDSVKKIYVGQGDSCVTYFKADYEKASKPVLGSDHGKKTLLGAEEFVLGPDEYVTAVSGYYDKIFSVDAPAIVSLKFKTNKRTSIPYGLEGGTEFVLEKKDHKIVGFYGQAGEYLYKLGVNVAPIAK
Briefly: split reporter.

B1: AtJAC1-HA (protein, UniProt O04309 1-451)
chain: T5 sequence
Consider B1, for which the binding entry in assay [1] and in assay [2] was “binds” each time.

B2: AtJAC1-mVenus^C (BiFC) (protein, UniProt O04309 1-451)
chain: T5 sequence
Consider B2, for which the binding entry in assay [3] and in assay [4] was “binds” in each case.

B3: GLYCINE-RICH RNA-BINDING PROTEIN 7 (GRP7)-mVenus^N (BiFC) (protein, UniProt Q03250 1-176)
chain: MASGDVEYRCFVGGLAWATDDRALETAFAQYGDVIDSKIINDRETGRSRGFGFVTFKDEKAMKDAIEGMNGQDLDGRSITVNEAQSRGSGGGGGHRGGGGGGYRSGGGGGYSGGGGSYGGGGGRREGGGGYSGGGGGYSSRGGGGGSYGGGRREGGGGYGGGEGGGYGGSGGGGGW
In the case of B3, in assay [5], the binding result is reported as “binds”.
